Assay results taken from publication PMC7297531.
No constants are given. Whether binding was seen depends on the method and setting. Binding seen in cells or lysates may run through a third protein. Some results given as binding are weak or reduced against the parent protein; the word gives no strength.

What was measured:
Settings in all cases: remark: other sources report otherwise
[1] = target: MCL1 (human (endogenous in LNCaP)), Q07820; assay: co-IP; lysates of SgMARCH5-KO, HA-MCL1 or control LNCaP cells, same protein amounts, precipitated with anti-MCL1 mouse antibody or control mouse IgG and protein G agarose, blotted for MCL1, BIM, BAK and NOXA
[2] = target: HA-tagged MCL1, Q07820; assay: as above
[3] = target: MCL1 (human (endogenous in LNCaP)), Q07820; assay: co-IP; lysates of SgMARCH5-KO or control LNCaP cells (IP lysis buffer) precipitated with anti-MCL1 rabbit antibody or control rabbit IgG and protein A agarose, blotted with mouse antibodies; in Figure 4C SgMARCH5-KO cells treated with erlotinib (10 uM), S63845 (0.5 uM) or DMSO for 3 hr

binding [1]: binds | binding [2]: binds | binding [3]: binds
B1: NOXA, Q13794 1-54 (protein)
chain: MPGKKARKNAQPSPARAPAELEVECATQLRRFGDKLNFRQKLLNLISKLFCSGT
